Laboratory results taken from patent publication US20220089776A1 (OREGON HEALTH AND SCIENCE UNIVERSITY, published 2022).
No constants are given. Whether binding was seen depends on the method and setting. For some assays here: A result given as binding can be weak or reduced; the word gives no strength.

How the values were obtained:
baboon FXII (baboon) [1] = experiment: Western blot of platelet-poor plasma
[2] = molecular target: African green monkey FXII (African green monkey); experiment: Western blot of platelet-poor plasma
cat FXII (cat) [3] = experiment: Western blot of platelet-poor plasma, non-reduced SDS-PAGE
elephant FXII (elephant) [4] = experiment: as above
horse FXII (horse) [5] = experiment: as above
[6] = molecular target: red kangaroo FXII (red kangaroo); experiment: as above
chicken FXII (chicken) [7] = experiment: as above
dog FXII (dog) [8] = experiment: as above
tiger FXII (tiger) [9] = experiment: as above
llama FXII (llama) [10] = experiment: as above
raccoon FXII (raccoon) [11] = experiment: as above
beagle FXII (beagle) [12] = experiment: as above
marmoset FXII (marmoset) [13] = experiment: as above
[14] = molecular target: giant anteater FXII (giant anteater); experiment: as above
baboon FXII (baboon) [15] = experiment: Western blot of platelet-poor plasma after SDS-PAGE; primary antibody murine 5C12, secondary goat anti-mouse polyclonal
cat FXII (cat) [16] = experiment: Western blot of platelet-poor plasma; primary antibody murine 5C12
elephant FXII (elephant) [17] = experiment: as above
horse FXII (horse) [18] = experiment: as above
[19] = molecular target: red kangaroo FXII (red kangaroo); experiment: as above
chicken FXII (chicken) [20] = experiment: as above
dog FXII (dog) [21] = experiment: as above
tiger FXII (tiger) [22] = experiment: as above
llama FXII (llama) [23] = experiment: as above
raccoon FXII (raccoon) [24] = experiment: as above
beagle FXII (beagle) [25] = experiment: as above
marmoset FXII (marmoset) [26] = experiment: as above

B1: mouse monoclonal antibody 5C12 (antibody, mouse IgG1, kappa, V domains shown)
VH: DVQLQESGPDLVKPSQSLSLTCTVTGYSITSGYSWHWIRQFPGNNLEWMGYIQYSGNTNSNPSLKSRISITRDTSKNQFFLHLNSVTTEDTATYYCARWGSFDYWGQGTTLTVSS
VL: QIVLTQSPAIMSASPGEKVTMTCSASSSVNYMHWYQQKSGTSPKRWIYDTSKLASGVPARFSGSGSGTSYSLTISSMEAGDAATYYCQQWSGNPPTFGGGTILEIKR
notes: Purified from hybridoma; also called AB053; 5C12 MAb
binding (baboon FXII (baboon) [1]): binds | binding [2]: binds | binding (cat FXII (cat) [3]): no binding | binding (elephant FXII (elephant) [4]): no binding | binding (horse FXII (horse) [5]): no binding | binding [6]: no binding | binding (chicken FXII (chicken) [7]): no binding | binding (dog FXII (dog) [8]): no binding | binding (tiger FXII (tiger) [9]): no binding | binding (llama FXII (llama) [10]): no binding | binding (raccoon FXII (raccoon) [11]): no binding | binding (beagle FXII (beagle) [12]): no binding | binding (marmoset FXII (marmoset) [13]): no binding | binding [14]: no binding | binding (baboon FXII (baboon) [15]): binds | binding (cat FXII (cat) [16]): no binding | binding (elephant FXII (elephant) [17]): no binding | binding (horse FXII (horse) [18]): no binding | binding [19]: no binding | binding (chicken FXII (chicken) [20]): no binding | binding (dog FXII (dog) [21]): no binding | binding (tiger FXII (tiger) [22]): no binding | binding (llama FXII (llama) [23]): no binding | binding (raccoon FXII (raccoon) [24]): no binding | binding (beagle FXII (beagle) [25]): no binding | binding (marmoset FXII (marmoset) [26]): no binding
